Here are results for 64 compounds from PubChem BioAssay AID493014 (National Center for Advancing Translational Sciences (NCATS), 2011).

The list shows a part of the results. These are further read-outs of the screen, such as a control signal, another cell line or another target. No call is given for them. Most of these compounds were active or inconclusive in the main read-out, so they are no random draw. Words in brackets tell the shape of the fitted curve; partial curves, single points and poor fits give uncertain potencies.

The experiment is described as follows: qHTS Assay to Find Inhibitors of Chronic Active B-Cell Receptor Signaling. Conditions: ABC-DLBCL IkBa-CBG/CBR reporter, luminescence ratio (green luciferase fused to IkBa over red control in TMD8 lymphoma cells), 4 h. In a few lines:
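Concentration-response series (up to 46 uM) were applied to TMD8 dual-reporter cells for 4 h at 37C with doxycycline. Green/red ratio, after filter-overlap correction, defined %Activity; red signal alone was normalised to basal cells and zero luminescence.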

The mark [1] stands for this setting: measured here: CBR red luminescence, cell number.
Setting [2] is: measured here: IkBa-CBG green luminescence.

For `COc1ccc(N(C(=O)c2ccc(Cl)cc2)C2=CC3CCC(C2)N3C)cc1` (centres undefined), under setting [1], the AC50 is 3.26 µM [falling, single point].

As to `O=C(O)CCCCCNC(=O)c1ccccc1`, the concentration at half-maximal activity (AC50) reads like this: under setting [1], 23.1 µM [falling, single point]; under setting [2], 23.1 µM [rising, partial curve, poor fit].

As to `O=C(NCc1ccc(F)cc1)c1cc(-c2ccncc2)nc2ccccc12`, the concentration at half-maximal activity (AC50) under setting [1] was 1.58 µM [rising, partial curve, poor fit].

Take `O=C(Nc1ccc2nc(-c3ccco3)[nH]c2c1)c1ccco1`: the AC50 under setting [1] was 2.91 µM [falling, partial curve, poor fit].

For `COc1cc(CCC(=O)Nc2cnc3ccccc3c2)cc(OC)c1OC`, the AC50 under setting [1] was 35.5 µM [falling, single point].

Turning to `N#Cc1cccnc1Nc1cccc(Cl)c1`, the concentration at half-maximal activity (AC50) under setting [1] was 20.6 µM [rising, single point].

For `COc1ccc(OC)c(N=CC2=C(O)CC(C)(C)CC2=O)c1`, the concentration at half-maximal activity (AC50) was 18.4 µM [rising, partial curve, poor fit] under setting [1] and 16.4 µM [falling, partial curve, poor fit] under setting [2].

As to `Clc1ccc(OCc2cn3cccnc3n2)c2ncccc12`, the concentration at half-maximal activity (AC50) under setting [1] was 4.11 µM [rising, partial curve, poor fit].

As to `CN1CCN(/N=C/c2c3ccccc3c(Cl)c3ccccc23)CC1`, the AC50 under setting [2] was 22.4 µM [falling, partial curve, poor fit].

Regarding `C/C(O)=C\c1nc2ccccc2oc1=O`, the AC50 under setting [1] was 3.16 µM [falling, full curve].

As to `O=C1NCCCC1C(=O)N/N=C/c1cccc(Cl)c1` (centres undefined), under setting [1], the AC50 was 35.5 µM [falling, single point].

Consider `CC1(C)CC(=O)c2sc(NC(=O)C(C)(C)C)nc2C1`, for which the AC50 under setting [1] is 12.6 µM [falling, partial curve, poor fit].

With `C/C(CC(=O)Nc1ccc(F)cc1F)=N\NC(=O)C(=O)N1CCCCC1`, the AC50 under setting [1] was 3.16 µM [falling, partial curve, poor fit].

Turning to `COc1ccc(Cc2c(Cl)ncnc2Cl)cc1`, under setting [1], the AC50 is 14.6 µM [falling, single point].

As for `CCc1c(C)sc(NC(=O)c2ccco2)c1C#N`, the half-maximal activity concentration (AC50) under setting [1] is 3.55 µM [rising, full curve].

As to `O=C(NCC1CCCO1)c1cccc(NC(=O)c2ccccc2)c1` (centres undefined), the AC50 under setting [1] is 11.2 µM [falling, partial curve].

On to `COCc1nnc(NC(=O)c2ccc(OC)cc2OC)s1`, for which the AC50 under setting [1] was 35.5 µM [falling, single point].

Regarding `CC/C(Cc1ccccc1)=N/NC(=O)c1cccc(Br)c1`, the half-maximal activity concentration (AC50) under setting [1] was 11.6 µM [falling, partial curve, poor fit].

For the compound `O=C(c1ccccn1)c1ccc2ccccc2n1`, under setting [1], the AC50 is 11.2 µM [rising, single point].

Turning to `Cc1csc2nc(O)c(C(=O)NC3CCCCC3)c(=O)n12`, the AC50 under setting [1] was 23.1 µM [falling, single point].

As for `COc1cccc(C(=O)NNC(=O)c2ccccc2)c1`, under setting [1], the half-maximal activity concentration (AC50) is 10 µM [falling, partial curve].

As to `COc1cc(C2OC(=O)c3ccccc3S2)cc(OC)c1OC` (centres undefined), under setting [1], the AC50 was 35.5 µM [rising, single point].

Regarding `CC(=O)N1CCN(C(=O)CCNS(=O)(=O)c2ccc(Br)cc2)CC1`, the AC50 under setting [1] is 4.61 µM [rising, partial curve, poor fit].

On to `COc1cc2c(cc1OC)CN(C(=O)C1CCC(=O)N(CCCN3CCOCC3)C1)CC2` (centres undefined), for which the AC50 under setting [1] was 6.31 µM [falling, full curve, poor fit].

In the case of `CC(C)Cc1nnc(NC(=O)C2=COCCO2)s1`, the half-maximal activity concentration (AC50) under setting [1] is 29.1 µM [falling, single point].

`COc1ccc(-c2csc(NC(=O)c3cccc(S(=O)(=O)N4CCN(C)CC4)c3)n2)cc1`: the half-maximal activity concentration (AC50) under setting [1] was 7.94 µM [falling, partial curve].

For `COc1ccc(Cl)cc1NC(=O)c1cc(-c2cc(C)ccc2O)n[nH]1`, the half-maximal activity concentration (AC50) under setting [1] was 15.8 µM [falling, partial curve, poor fit].

On to `c1ccc(CCNc2ncnc3scc(C4COc5ccccc5O4)c23)cc1` (centres undefined), for which, under setting [1], the concentration at half-maximal activity (AC50) is 20.6 µM [falling, single point].

In the case of `COc1cccc(CC(=O)Nc2ccc(-c3nc4ccccc4s3)cc2Cl)c1`, the AC50 under setting [1] is 2.82 µM [rising, full curve].

For the compound `CCOc1ccc(C(=O)c2ccncc2)cc1`, under setting [1], the concentration at half-maximal activity (AC50) was 18.4 µM [rising, single point].

Consider `O=C(O)COc1ccccc1/C=N/NC(=O)CSc1nc2ccccc2s1`, for which, under setting [1], the AC50 is 6.31 µM [rising, single point].

As for `Nc1ncnc2c1ncn2[C@@H]1O[C@H](CNC(=O)[C@H](N)Cc2cscn2)[C@@H](O)[C@H]1O`, the AC50 under setting [1] is 18.4 µM [rising, partial curve, poor fit].

For the compound `CCN(CC)CCCNC(=O)CCC(=O)NNc1nc2ccccc2c2nc(C)nn12`, the AC50 by setting is: under setting [1], 15.8 µM [falling, single point]; under setting [2], 35.5 µM [falling, single point].

For `O=C(N/N=C/C=C/c1ccco1)c1ccccc1Cl`, the concentration at half-maximal activity (AC50) under setting [1] is 3.55 µM [falling, full curve, poor fit].

On to `O=C(NC(=S)Nc1nc2c(s1)CSc1ccccc1-2)c1ccccc1`, for which the AC50 was 16.4 µM [falling, single point] under setting [1] and 32.6 µM [rising, partial curve, poor fit] under setting [2].

In the case of `O=C1N=C2SCCN2/C1=C\c1ccc(Cl)cc1`, the AC50 under setting [1] is 0.103 µM [falling, full curve, poor fit].

As to `O=C(COc1ccc(Cl)cc1)Nc1nnc(S(=O)(=O)N2CCCCCC2)s1`, under setting [1], the half-maximal activity concentration (AC50) is 2.82 µM [rising, full curve, poor fit].

As to `COc1cc(-c2ccc3sc(-c4ccsc4)c(C#CCO)c3c2)cc(OC)c1OC`, the concentration at half-maximal activity (AC50) under setting [1] is 32.6 µM [falling, single point].

For `COc1ccc(C(C(=O)Nc2ccc(F)cc2)N(C(=O)Cn2nnc3ccccc32)C2CC2)cc1` (centres undefined), the AC50 under setting [1] is 11.2 µM [falling, single point].

In the case of `COc1ccccc1C(=O)Nc1ccc(OCc2nnc3c4ccccc4c(C)nn23)cc1`, the AC50 under setting [1] is 2.91 µM [rising, partial curve].

For `COc1ccccc1CNC(=O)c1c(N)n(CCCN2CCOCC2)c2nc3ccccc3nc12`, the AC50 under setting [1] is 11.2 µM [falling, partial curve].

Consider `O=C(OCc1nc2ccccc2s1)c1ccco1`, for which, under setting [1], the AC50 is 5.01 µM [rising, partial curve].

On to `CC(C)Oc1ccc(C2CC(=O)N(c3cccc(C(=O)O)c3)C2=O)cc1` (centres undefined), for which the half-maximal activity concentration (AC50) under setting [1] was 35.5 µM [rising, single point].

Regarding `C/C(CC(=O)Nc1ccc2c(c1)OCO2)=N\NC(=O)c1ccccc1N`, the AC50 under setting [1] is 11.2 µM [falling, partial curve].

With `FC(F)Sc1ccc(NC(=S)NC(c2ccccc2)c2ccccc2)cc1`, the AC50 is, setting by setting: under setting [1], 25.1 µM [falling, single point]; under setting [2], 17.8 µM [rising, single point].

Turning to `CC(O)[C@H]1CNCCN1CCc1cccc2ccccc12` (some centres undefined), the AC50 under setting [1] was 23.1 µM [falling, partial curve, poor fit].

Regarding `COc1ccccc1Nc1nc(N)nc(CCl)n1`, under setting [1], the half-maximal activity concentration (AC50) was 28.2 µM [falling, partial curve, poor fit].

For the compound `CCN(CC)S(=O)(=O)c1ccc2c(c1)[nH]c(=S)n2CC`, the AC50 under setting [1] was 0.794 µM [falling, partial curve, poor fit].

As to `CC1(C)CC(=O)C2=C(C1)NC(=O)CC2c1cc2c(cc1Br)OCO2` (centres undefined), the AC50 under setting [1] is 35.5 µM [rising, partial curve, poor fit].

Turning to `O=C(Cc1cccs1)Nc1nc(-c2ccccc2)cs1`, the AC50 under setting [1] was 29.1 µM [falling, single point].

For the compound `O=c1ccc2cc3c([nH]c4ccc(Br)cc43)oc-2c1O`, the concentration at half-maximal activity (AC50) under setting [1] was 3.66 µM [falling, partial curve].

As to `COc1ccc(-c2c(C)nn3c(N4CCCCCC4)cc(C)nc23)cc1OC`, under setting [1], the AC50 is 35.5 µM [falling, single point].

In the case of `C=CCC(COCc1ccccc1)NS(=O)(=O)c1ccccc1Br` (centres undefined), the AC50 under setting [1] is 22.4 µM [rising, single point].

With `Cc1ccc(-c2nn(-c3ccccc3)cc2C(=O)NC2CCC(O)CC2)cc1` (centres undefined), under setting [1], the AC50 is 1.84 µM [rising, partial curve, poor fit].

`Cc1ccc(N2C(=O)C(Cl)=C(N3CCOCC3)C2=O)cc1Cl`: the concentration at half-maximal activity (AC50) under setting [1] was 8.2 µM [falling, partial curve, poor fit].

As for `Cc1cc(C(=O)COC(=O)Cn2c(C(F)(F)F)nc3ccccc32)c(C)n1Cc1ccco1`, the AC50 under setting [1] is 35.5 µM [rising, single point].

Take `Cc1ccc([C@@H]2CC=C(C(=O)O)[C@H](c3ccc(Br)cc3)N2S(=O)(=O)c2ccc(C)cc2)cc1`: the AC50 under setting [1] is 29.1 µM [falling, single point].

As to `CN(C)Cc1c(-c2ccc(Cl)cc2)nc2ccc(Cl)cn12`, the half-maximal activity concentration (AC50) under setting [1] was 0.112 µM [rising, full curve, poor fit].

Take `CCOC(=O)c1ccccc1NC(=O)C(C)Oc1ccccc1` (centres undefined): the AC50 under setting [1] was 23.1 µM [rising, single point].

Take `Cc1cc(C(=O)OCC(=O)Nc2cc(C)on2)c2ccccc2n1`: the concentration at half-maximal activity (AC50) under setting [1] was 29.1 µM [falling, single point].

`O=C1C/C(=C/NCc2ccccc2)C(=O)N1`: the AC50 under setting [1] was 29.1 µM [falling, single point].

In the case of `CCOc1ccc(NCc2cccn2-c2nnc(N3CCC(C(=O)NCCCN4CC(C)CC(C)C4)CC3)s2)cc1` (centres undefined), the AC50 under setting [1] was 17.8 µM [falling, single point].

In the case of `O=[N+]([O-])c1ccc(NCCCNS(=O)(=O)c2ccccc2)cc1`, the AC50 under setting [1] was 12.6 µM [falling, partial curve, poor fit].

With `Cc1cnc(C(=O)N2CCc3c([nH]c4ccccc34)C2c2ccc(F)cc2)cn1` (centres undefined), the concentration at half-maximal activity (AC50) under setting [1] was 0.631 µM [falling, full curve, poor fit].

By AC50 is commonly meant the concentration giving half of the maximal activity seen.
